For test [1], the target named is T1, FITC-CCNL1^321-332 peptide phosphorylated at both T325 and S329 (UniProt Q9UK58).
T1 sequence (peptide, phosphothreonine at T325; phosphoserine at S329; FITC-conjugated): NPDGTPALSTLG
Briefly: fluorescence polarisation. A general note: Fluorescence polarisation rises when a labelled molecule tumbles more slowly, as on binding a larger partner.

Protein sequences, listed by entry. Tags and fused reporters are not part of them. Lines headed by an entry give the natural chain unless they say otherwise; changes in a name come on top.
UniProt Q969H0: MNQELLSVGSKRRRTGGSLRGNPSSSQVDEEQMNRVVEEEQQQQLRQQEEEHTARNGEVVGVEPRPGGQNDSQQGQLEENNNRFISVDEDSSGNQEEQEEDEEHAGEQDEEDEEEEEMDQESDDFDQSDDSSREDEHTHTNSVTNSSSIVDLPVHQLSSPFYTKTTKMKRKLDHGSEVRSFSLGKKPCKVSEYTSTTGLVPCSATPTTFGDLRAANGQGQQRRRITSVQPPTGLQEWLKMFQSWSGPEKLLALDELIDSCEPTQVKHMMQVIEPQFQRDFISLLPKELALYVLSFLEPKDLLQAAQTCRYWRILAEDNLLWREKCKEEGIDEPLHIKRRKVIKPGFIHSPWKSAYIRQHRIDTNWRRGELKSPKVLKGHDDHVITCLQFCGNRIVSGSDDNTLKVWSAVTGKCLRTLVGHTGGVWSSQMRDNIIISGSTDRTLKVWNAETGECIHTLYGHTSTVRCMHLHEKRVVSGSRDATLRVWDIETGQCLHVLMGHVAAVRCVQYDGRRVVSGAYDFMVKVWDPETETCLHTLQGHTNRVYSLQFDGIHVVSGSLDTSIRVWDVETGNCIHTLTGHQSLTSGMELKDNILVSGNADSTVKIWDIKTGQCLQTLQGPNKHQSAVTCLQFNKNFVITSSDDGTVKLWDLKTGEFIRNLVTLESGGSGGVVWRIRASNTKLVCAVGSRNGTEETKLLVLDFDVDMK
UniProt Q13619: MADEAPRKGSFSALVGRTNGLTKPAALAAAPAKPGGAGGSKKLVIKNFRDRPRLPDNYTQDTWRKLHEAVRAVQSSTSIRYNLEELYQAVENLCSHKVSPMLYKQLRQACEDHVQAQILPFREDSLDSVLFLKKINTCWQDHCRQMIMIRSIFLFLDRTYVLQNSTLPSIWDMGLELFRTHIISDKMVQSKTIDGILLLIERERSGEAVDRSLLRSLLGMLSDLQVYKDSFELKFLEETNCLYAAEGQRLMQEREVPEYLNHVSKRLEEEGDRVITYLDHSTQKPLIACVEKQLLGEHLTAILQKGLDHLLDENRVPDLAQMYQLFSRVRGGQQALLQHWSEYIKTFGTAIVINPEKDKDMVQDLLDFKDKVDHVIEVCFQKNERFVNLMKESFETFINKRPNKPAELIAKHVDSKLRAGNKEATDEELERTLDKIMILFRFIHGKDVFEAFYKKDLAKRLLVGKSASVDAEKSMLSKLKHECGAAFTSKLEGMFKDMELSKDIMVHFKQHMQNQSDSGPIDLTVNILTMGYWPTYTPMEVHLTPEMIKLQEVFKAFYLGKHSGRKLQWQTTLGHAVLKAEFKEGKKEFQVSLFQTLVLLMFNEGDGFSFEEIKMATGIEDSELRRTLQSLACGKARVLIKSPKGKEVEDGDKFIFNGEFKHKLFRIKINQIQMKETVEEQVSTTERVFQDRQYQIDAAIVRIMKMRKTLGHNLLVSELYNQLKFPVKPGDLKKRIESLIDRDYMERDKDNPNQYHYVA

A further test deals with T2, FLAG-CCNL1 (HPAF-II) (UniProt Q9UK58).
T2 sequence: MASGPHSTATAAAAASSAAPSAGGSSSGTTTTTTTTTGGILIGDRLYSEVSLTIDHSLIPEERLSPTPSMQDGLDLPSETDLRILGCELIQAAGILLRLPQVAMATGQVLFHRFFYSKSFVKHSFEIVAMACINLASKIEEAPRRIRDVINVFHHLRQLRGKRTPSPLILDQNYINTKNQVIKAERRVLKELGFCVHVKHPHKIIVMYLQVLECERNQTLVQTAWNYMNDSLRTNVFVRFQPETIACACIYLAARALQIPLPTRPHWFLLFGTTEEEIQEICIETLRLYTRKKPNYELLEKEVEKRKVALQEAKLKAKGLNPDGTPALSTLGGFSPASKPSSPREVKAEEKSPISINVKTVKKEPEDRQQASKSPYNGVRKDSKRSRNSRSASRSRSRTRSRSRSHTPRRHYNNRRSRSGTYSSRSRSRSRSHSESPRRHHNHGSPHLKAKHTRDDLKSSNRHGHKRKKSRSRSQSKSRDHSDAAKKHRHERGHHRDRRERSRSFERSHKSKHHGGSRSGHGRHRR
Put plainly: co-IP.

A further test addresses T3, FLAG-CCNL1 (HEK293T) (UniProt Q9UK58).
T3 sequence: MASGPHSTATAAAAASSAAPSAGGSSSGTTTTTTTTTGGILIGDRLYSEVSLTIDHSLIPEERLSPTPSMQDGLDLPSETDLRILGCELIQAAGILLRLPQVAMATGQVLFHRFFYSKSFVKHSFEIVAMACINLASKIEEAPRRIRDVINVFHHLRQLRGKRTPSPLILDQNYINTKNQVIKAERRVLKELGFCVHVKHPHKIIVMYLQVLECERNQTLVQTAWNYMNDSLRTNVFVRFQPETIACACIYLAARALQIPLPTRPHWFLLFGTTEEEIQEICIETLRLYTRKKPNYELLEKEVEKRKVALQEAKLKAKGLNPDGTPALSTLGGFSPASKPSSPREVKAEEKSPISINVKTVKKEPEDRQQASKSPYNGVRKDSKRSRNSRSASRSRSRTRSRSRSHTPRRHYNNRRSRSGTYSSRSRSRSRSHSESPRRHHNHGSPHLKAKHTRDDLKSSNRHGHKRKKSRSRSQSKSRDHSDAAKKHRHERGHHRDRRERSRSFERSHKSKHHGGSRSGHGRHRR
Briefly: co-IP.

Another test addresses FLAG-FBXW7 (human) (UniProt Q969H0). Briefly: co-IP.

Our source for the binding values is article doi:10.1101/2022.09.26.509608.

No constants are given. Whether binding was seen depends on the method and setting. For some of these results: Binding seen in cells or lysates may run through a third protein. Some results given as binding are weak or reduced against the parent protein; the word gives no strength. For some of these results: Tags and fused reporters may be left off the sequences shown.

Regarding “Skp1-FBXW7^263-707 complex (from UniProt Q969H0 263-707; P63208 1-163)”, the binding result in test [1] is on record as “binds”.
On to “endogenous CUL4A (from UniProt Q13619 1-759)”, for which the binding entry with FLAG-CCNL1 (HPAF-II) is on record as “binds”.
As for “endogenous FBXW7 (from UniProt Q969H0 1-707)”, the binding result with FLAG-CCNL1 (HEK293T) is on record as “binds”.

B1: endogenous CCNL1 (protein, UniProt Q9UK58 1-526)
chain: MASGPHSTATAAAAASSAAPSAGGSSSGTTTTTTTTTGGILIGDRLYSEVSLTIDHSLIPEERLSPTPSMQDGLDLPSETDLRILGCELIQAAGILLRLPQVAMATGQVLFHRFFYSKSFVKHSFEIVAMACINLASKIEEAPRRIRDVINVFHHLRQLRGKRTPSPLILDQNYINTKNQVIKAERRVLKELGFCVHVKHPHKIIVMYLQVLECERNQTLVQTAWNYMNDSLRTNVFVRFQPETIACACIYLAARALQIPLPTRPHWFLLFGTTEEEIQEICIETLRLYTRKKPNYELLEKEVEKRKVALQEAKLKAKGLNPDGTPALSTLGGFSPASKPSSPREVKAEEKSPISINVKTVKKEPEDRQQASKSPYNGVRKDSKRSRNSRSASRSRSRTRSRSRSHTPRRHYNNRRSRSGTYSSRSRSRSRSHSESPRRHHNHGSPHLKAKHTRDDLKSSNRHGHKRKKSRSRSQSKSRDHSDAAKKHRHERGHHRDRRERSRSFERSHKSKHHGGSRSGHGRHRR
With B1, the binding result with FLAG-FBXW7 (human) is “binds”.
